The other results are listed elsewhere or left out.
Columns and labels:
Experiment in all cases: log2 fold change, soluble protein after heating vs DMSO (PISA); higher = thermal stabilisation; K562 cells, 10 uM, 30 min; active = over 0.2 and 3.5 SD of the protein, either way, in both replicates (recomputed)
[1] = compound: C/C(=N\NC(=O)C1=CC(=CC=C1)S(=O)(=O)N2CCOCC2)/C3=C(C=CC(=C3)Cl)O
Outline: (§1)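 Soluble protein was quantified by TMTpro 16plex LC-MS/MS after channel sums were equalised. It was obtained as the supernatant after 21,000xg for 90 min from pooled aliquots of K562 cells (2×10^6 cells/mL, 10 μM compound, 30 min) heated for 3 min across 48°C-58°C and extracted in PBS with 0.5% NP-40 at 4°C. Thermal stability values are relative to control samples and come from duplicates. They are given as log2 fold changes.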

The chains behind the UniProt entries cited, without tags or fusion partners. Where a name states a change or a piece, a line headed by the entry shows the natural chain unless it says otherwise.
UniProt O00443: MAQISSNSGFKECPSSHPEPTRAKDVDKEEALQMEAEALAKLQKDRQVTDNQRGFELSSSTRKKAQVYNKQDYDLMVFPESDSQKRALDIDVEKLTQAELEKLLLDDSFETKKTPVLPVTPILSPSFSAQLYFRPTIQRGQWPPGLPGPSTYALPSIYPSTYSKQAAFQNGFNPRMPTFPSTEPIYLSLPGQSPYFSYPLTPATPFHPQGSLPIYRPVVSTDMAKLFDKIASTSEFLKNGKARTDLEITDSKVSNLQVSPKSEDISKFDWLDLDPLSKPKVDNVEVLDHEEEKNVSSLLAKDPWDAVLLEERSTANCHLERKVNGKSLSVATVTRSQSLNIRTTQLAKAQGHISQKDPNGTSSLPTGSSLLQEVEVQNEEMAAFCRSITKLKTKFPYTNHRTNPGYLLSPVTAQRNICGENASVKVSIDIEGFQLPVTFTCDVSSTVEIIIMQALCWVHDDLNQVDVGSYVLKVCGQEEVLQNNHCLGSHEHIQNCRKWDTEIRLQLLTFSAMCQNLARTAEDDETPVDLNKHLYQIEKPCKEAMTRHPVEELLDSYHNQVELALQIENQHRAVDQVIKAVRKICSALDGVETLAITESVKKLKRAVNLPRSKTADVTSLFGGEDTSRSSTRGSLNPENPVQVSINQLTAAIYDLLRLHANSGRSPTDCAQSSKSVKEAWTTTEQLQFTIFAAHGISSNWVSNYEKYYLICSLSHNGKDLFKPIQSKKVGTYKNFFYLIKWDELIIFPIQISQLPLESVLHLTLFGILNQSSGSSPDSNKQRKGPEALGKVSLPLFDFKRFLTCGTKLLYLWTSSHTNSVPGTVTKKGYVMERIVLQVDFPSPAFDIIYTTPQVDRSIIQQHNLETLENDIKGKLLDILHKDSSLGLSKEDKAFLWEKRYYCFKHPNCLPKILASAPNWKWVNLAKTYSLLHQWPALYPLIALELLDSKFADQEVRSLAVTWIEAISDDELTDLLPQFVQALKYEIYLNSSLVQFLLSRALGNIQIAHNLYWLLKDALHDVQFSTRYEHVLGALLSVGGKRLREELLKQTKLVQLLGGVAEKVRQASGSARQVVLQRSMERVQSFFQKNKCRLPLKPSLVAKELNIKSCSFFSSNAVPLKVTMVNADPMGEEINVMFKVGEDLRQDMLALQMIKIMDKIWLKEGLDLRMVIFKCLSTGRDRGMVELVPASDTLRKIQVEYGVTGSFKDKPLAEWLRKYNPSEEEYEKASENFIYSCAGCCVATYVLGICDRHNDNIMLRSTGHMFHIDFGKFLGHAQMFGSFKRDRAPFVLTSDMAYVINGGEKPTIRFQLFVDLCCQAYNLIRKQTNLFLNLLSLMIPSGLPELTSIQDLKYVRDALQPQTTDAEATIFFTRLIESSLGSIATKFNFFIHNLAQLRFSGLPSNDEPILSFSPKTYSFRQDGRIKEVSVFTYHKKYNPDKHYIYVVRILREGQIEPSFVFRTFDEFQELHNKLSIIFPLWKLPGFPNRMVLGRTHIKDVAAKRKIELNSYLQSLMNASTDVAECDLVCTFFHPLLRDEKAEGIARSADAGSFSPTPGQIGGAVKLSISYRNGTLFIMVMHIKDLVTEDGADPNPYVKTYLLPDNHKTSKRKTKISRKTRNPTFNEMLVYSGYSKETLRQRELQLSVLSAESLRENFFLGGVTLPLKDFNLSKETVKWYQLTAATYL
UniProt Q9C010: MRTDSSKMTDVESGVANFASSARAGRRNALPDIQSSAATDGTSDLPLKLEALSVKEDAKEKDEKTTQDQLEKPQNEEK
UniProt Q9NUJ7: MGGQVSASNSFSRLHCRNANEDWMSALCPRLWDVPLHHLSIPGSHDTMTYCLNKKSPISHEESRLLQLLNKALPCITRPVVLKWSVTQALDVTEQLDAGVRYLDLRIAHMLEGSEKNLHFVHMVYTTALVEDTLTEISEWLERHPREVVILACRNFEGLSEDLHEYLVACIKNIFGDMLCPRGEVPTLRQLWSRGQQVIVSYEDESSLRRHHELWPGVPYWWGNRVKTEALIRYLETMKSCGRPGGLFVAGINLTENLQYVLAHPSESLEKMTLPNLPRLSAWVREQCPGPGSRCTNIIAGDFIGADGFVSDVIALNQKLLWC
UniProt Q8TEQ8: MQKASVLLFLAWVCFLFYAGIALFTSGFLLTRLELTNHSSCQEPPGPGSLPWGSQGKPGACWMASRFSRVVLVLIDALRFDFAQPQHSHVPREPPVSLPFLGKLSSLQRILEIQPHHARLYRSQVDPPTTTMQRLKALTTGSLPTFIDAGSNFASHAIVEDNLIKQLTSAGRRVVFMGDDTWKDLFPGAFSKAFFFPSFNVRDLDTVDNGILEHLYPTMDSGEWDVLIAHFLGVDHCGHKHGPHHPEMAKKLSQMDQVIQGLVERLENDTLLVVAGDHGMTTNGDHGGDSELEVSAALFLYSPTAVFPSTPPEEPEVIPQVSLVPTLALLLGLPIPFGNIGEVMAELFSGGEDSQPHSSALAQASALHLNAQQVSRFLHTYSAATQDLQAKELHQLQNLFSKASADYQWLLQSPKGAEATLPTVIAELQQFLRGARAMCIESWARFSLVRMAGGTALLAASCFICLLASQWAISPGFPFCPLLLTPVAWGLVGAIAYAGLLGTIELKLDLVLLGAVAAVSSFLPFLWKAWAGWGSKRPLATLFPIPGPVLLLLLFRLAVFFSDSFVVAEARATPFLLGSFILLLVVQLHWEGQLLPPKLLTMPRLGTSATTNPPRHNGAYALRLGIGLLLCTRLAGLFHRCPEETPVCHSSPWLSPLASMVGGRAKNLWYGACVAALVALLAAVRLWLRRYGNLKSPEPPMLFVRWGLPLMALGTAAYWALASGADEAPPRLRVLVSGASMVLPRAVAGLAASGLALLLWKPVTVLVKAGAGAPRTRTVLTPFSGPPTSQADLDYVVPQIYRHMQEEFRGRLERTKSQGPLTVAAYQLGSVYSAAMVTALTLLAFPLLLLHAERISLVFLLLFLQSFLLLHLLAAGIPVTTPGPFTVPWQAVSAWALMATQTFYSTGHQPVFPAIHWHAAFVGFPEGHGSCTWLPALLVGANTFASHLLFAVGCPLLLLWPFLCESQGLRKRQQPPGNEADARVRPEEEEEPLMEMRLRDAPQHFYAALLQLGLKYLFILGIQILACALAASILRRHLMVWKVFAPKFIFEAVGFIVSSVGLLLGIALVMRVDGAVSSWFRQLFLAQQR
UniProt Q96CS7: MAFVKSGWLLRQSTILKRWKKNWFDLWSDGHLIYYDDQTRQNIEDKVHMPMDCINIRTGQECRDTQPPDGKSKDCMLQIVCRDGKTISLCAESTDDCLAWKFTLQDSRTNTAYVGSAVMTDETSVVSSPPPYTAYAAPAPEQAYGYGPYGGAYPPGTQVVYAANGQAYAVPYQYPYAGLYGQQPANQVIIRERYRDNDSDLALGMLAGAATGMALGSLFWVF
UniProt P16118: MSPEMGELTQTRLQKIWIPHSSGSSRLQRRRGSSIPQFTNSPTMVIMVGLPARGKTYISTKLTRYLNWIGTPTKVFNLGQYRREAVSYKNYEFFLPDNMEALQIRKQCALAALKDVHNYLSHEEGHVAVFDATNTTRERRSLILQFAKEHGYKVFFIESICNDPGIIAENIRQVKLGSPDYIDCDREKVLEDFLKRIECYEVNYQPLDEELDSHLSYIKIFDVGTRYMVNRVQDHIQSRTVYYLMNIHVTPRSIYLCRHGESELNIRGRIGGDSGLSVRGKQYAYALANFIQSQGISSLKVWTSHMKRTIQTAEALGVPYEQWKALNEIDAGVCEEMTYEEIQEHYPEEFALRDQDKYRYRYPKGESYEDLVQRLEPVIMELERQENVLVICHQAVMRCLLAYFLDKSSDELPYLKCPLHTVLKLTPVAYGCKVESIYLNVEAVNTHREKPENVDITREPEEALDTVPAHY
UniProt Q9NRD5, whole entry, looked up: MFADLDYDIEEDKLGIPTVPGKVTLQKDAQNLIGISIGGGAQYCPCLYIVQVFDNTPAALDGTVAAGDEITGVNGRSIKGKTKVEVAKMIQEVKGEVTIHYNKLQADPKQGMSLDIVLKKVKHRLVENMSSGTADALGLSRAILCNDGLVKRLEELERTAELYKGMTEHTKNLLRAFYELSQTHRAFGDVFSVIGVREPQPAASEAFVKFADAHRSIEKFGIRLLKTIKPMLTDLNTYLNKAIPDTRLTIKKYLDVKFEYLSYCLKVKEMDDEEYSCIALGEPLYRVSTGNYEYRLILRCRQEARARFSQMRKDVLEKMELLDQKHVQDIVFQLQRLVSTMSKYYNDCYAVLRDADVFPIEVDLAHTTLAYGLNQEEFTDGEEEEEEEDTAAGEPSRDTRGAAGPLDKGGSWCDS
UniProt Q99755: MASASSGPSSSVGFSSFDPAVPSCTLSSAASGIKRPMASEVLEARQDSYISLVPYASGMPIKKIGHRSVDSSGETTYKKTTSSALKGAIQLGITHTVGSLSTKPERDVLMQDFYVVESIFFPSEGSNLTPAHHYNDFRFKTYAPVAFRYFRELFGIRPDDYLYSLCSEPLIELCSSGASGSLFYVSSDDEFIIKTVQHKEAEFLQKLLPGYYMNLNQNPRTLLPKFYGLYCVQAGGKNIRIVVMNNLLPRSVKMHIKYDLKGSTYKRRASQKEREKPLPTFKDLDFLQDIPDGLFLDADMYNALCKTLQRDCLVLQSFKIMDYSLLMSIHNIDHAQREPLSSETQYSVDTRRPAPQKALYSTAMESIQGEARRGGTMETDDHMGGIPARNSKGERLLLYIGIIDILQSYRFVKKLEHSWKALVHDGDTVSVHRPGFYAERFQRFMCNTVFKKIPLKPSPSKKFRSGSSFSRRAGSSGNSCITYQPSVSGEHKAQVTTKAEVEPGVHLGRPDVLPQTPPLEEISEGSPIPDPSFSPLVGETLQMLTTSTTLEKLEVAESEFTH
UniProt P07205: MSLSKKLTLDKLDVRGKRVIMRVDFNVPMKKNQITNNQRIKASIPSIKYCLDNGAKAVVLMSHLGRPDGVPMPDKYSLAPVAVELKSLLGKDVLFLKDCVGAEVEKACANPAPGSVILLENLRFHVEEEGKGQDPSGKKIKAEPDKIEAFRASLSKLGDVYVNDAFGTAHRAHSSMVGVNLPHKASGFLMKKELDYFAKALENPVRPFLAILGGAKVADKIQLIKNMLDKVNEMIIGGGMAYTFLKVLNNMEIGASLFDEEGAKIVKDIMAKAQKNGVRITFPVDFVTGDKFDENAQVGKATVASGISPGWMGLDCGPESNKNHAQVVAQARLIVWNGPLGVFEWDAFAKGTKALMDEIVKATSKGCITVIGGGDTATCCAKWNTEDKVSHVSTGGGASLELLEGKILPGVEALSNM
UniProt Q03405, whole entry, looked up: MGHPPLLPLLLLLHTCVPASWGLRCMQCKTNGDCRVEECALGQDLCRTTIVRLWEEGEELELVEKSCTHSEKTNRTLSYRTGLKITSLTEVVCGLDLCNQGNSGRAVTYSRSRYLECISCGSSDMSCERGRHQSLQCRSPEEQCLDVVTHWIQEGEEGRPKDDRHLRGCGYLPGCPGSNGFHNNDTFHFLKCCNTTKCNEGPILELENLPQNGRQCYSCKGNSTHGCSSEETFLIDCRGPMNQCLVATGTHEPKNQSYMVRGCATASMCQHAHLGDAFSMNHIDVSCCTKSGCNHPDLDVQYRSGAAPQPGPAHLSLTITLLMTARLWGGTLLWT
UniProt Q8NDX5: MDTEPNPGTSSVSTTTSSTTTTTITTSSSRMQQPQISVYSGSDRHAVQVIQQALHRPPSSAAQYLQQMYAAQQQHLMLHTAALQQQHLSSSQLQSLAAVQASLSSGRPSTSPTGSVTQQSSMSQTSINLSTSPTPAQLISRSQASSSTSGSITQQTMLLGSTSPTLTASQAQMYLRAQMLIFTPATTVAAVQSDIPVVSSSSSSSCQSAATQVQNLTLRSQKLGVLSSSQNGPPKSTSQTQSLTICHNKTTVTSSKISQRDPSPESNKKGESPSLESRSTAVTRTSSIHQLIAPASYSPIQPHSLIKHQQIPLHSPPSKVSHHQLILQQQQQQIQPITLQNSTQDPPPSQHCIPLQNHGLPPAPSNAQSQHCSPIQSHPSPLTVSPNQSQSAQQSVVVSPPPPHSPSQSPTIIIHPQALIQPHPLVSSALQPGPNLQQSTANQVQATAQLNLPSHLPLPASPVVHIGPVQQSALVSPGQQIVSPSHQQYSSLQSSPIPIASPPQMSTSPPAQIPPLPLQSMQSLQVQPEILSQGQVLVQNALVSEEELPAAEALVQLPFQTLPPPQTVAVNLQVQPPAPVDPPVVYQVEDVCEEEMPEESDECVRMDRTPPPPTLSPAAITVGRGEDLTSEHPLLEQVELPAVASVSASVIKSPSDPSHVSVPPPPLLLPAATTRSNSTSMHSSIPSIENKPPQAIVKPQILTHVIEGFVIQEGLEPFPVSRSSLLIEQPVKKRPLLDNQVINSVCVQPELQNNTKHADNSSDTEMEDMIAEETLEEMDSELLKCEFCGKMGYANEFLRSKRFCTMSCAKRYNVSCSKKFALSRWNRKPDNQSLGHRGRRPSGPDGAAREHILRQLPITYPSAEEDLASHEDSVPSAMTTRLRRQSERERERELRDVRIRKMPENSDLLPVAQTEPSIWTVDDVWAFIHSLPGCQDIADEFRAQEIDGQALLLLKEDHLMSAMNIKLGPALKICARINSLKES

[2] = compound: C1=CC(=C(C=C1Cl)C2=NC3=NC=CN=C3C(=N2)NC4=CC=NC=C4)F
Outline: as §1

[3] = compound: C1=CC2=C(C=CC(=C2)/C=C\3/C(=O)NC(=NCC4=CC=CS4)S3)N=C1
Outline: as §1

[4] = compound: C1=CC2=NC=CN=C2C=C1/C=C/3\C(=O)NC(=O)S3
Outline: as §1

[5] = compound: C1=CC=C(C=C1)C2=NC(=C(N2)C3=CC=NC=C3)C4=CC(=C(C=C4)Cl)O
Outline: as §1

[6] = compound: C1=CC=C2C(=C1)C3=NNC4=CC=CC(=C43)C2=O
Outline: as §1

[7] = compound: C1CCN(C1)C(=O)NC2=CC=CC(=C2)NC3=NC=C(C(=N3)NCCC4=CN=CN4)Br
Outline: as §1

[8] = compound: C1CN(CCC1(CC2=CC=C(C=C2)Cl)N)C3=NC=NC4=C3C=CN4
Outline: as §1

erlotinib = compound: C#Cc1cccc(Nc2ncnc3cc(OCCOC)c(OCCOC)cc23)c1 [erlotinib]
Outline: as §1

[9] = compound: C1=CC(=CC=C1C2=NC3=C(N2)C=C(C=C3)C(=O)N)OC4=CC=C(C=C4)Cl
Outline: as §1

Measured: log2 fold change

PKM isoform 2 (UniProt P14618)
inactive: [1] -0.004 | [2] 0.075 | [3] -0.005 | [4] -0.18 | [5] -0.048 | [6] 0.04 | [7] -0.047 | [8] 0.003

PKP3 isoform 2 (UniProt Q9Y446)
inactive: [1] 0.001 | [2] -0.175 | [3] 0.052 | [4] -0.052 | [5] -0.031 | [6] -0.002 | [7] -0.216 | [8] -0.164

PHLPP1 (UniProt O60346)
inactive: [2] -0.092 | [7] 0.021 | [8] -0.133

PIK3C2A (UniProt O00443)
inactive: erlotinib 0.038 | [2] -0.099 | [9] -0.086 | [5] -0.202

PGD (UniProt K7EM49)
inactive: [2] -0.334 | [4] -0.159 | [5] -0.307

PLD6 (UniProt Q8N2A8)
inactive: [2] 0

Copied from above (2 entries):
PHLPP1 (UniProt O60346)
inactive: [2] -0.092 | [7] 0.021 | [8] -0.133

PIK3C2A (UniProt O00443)
inactive: erlotinib 0.038 | [2] -0.099 | [9] -0.086 | [5] -0.202

The list continues.

PKIB isoform 2 (UniProt Q9C010)
inactive: erlotinib -0.057 | [9] -0.067

PGM1 isoform 2 (UniProt P36871)
inactive: erlotinib 0.111 | [9] -0.111

PHC2 isoform 5 (UniProt Q8IXK0)
inactive: [2] 0.045 | [4] 0.14 | [5] -0.165

PLCXD1 (UniProt Q9NUJ7)
inactive: [4] 0.025 | [5] -0.012

PIP5K1C isoform 3 (UniProt O60331)
inactive: erlotinib 0.047 | [2] -0.17 | [9] -0.107 | [4] 0.092 | [7] -0.143 | [8] 0.049

PIGO (UniProt Q8TEQ8)
inactive: erlotinib 0.031 | [2] -0.075 | [9] 0.027 | [4] 0.074 | [7] -0.066 | [8] 0.105

PKMYT1 (UniProt Q99640)
inactive: erlotinib -0.123 | [2] -0.013 | [9] -0.108 | [5] -0.454

PLEKHB2 isoform 2 (UniProt Q96CS7)
inactive: [4] 0.277

PFKFB1 (UniProt P16118)
inactive: [2] 0.071 | [4] -0.072

PIAS4 (UniProt Q8N2W9)
inactive: [2] 0.061 | [5] -0.214 | [7] 0.129 | [8] -0.045

PICK1 (UniProt Q9NRD5)
inactive: [2] 0.008 | [5] -0.217

PKLR (UniProt F8W6W2)
inactive: [1] 0.024 | [3] 0.177 | [4] -0.031 | [6] -0.012

PHF19 isoform 2 (UniProt Q5T6S3)
inactive: erlotinib 0.003 | [2] -0.027 | [9] -0.011 | [4] -0.259 | [5] -0.041 | [7] -0.162 | [8] 0.059

PIP5K1A (UniProt Q99755)
inactive: [1] 0.17 | [2] -0.223 | [3] -0.013 | [4] -0.003 | [5] 0.098 | [6] -0.115 | [7] -0.141 | [8] -0.174

PHETA1 isoform 4 (UniProt Q8N4B1)
inactive: [1] 0.036 | [3] 0.035 | [6] -0.365

PHYKPL (UniProt Q8IUZ5)
inactive: erlotinib 0.004 | [2] 0.12 | [9] 0.003 | [7] 0.022 | [8] 0.2

PHF14 (UniProt O94880)
inactive: [5] 0.098 | [7] 0.019 | [8] 0.06

PIGB (UniProt Q92521)
inactive: erlotinib -0.008 | [2] -0.05 | [9] -0.013 | [5] -0.006 | [7] -0.032 | [8] 0.012

PIGN (UniProt O95427)
inactive: [1] -0.004 | [2] -0.037 | [3] -0.007 | [4] -0.039 | [5] 0.067 | [6] 0.178 | [7] 0.06 | [8] -0.008

PIAS1 isoform 2 (UniProt O75925)
inactive: [4] 0.158 | [5] 0

PHRF1 (UniProt Q9P1Y6)
inactive: erlotinib -0.161 | [9] 0.082 | [5] 0.073

PFKM (UniProt F8VTQ3)
inactive: [4] -0.075

PGK2 (UniProt P07205)
inactive: [1] -0.055 | [2] -0.082 | [3] 0.152 | [4] -0.018 | [5] -0.057 | [6] -0.012 | [7] 0.034 | [8] 0.029

PLEK (UniProt P08567)
inactive: erlotinib -0.007 | [9] -0.024 | [5] -0.072

PKHD1 (UniProt P08F94)
inactive: [1] -0.544 | [3] 0.339 | [6] -0.08

PIGX isoform 2 (UniProt Q8TBF5)
inactive: erlotinib 0 | [2] -0.04 | [9] 0.015 | [4] 0.017 | [7] 0.075 | [8] -0.049

PIBF1 (UniProt Q8WXW3)
inactive: erlotinib 0.089 | [9] -0.124 | [4] 0.041 | [7] 0.079 | [8] -0.134

PFN3 (UniProt P60673)
inactive: [1] 0.141 | [2] -0.002 | [3] 0.168 | [6] -0.486 | [7] 0.072 | [8] 0.352

PLAUR (UniProt Q03405)
inactive: [1] -0.019 | [3] -0.159 | [6] -0.176

PI4KB isoform 2 (UniProt Q9UBF8)
inactive: erlotinib -0.098 | [9] 0.109

PKP4 (UniProt Q99569)
inactive: erlotinib 0.186 | [2] -0.094 | [9] 0.078 | [5] -0.124

PHC3 isoform 7 (UniProt Q8NDX5)
inactive: erlotinib 0.08 | [2] 0.24 | [9] -0.002 | [4] 0.174

PIGM (UniProt Q9H3S5)
inactive: erlotinib 0.08 | [9] -0.049 | [4] 0.122

PLA2G4B isoform 6 (UniProt P0C869)
inactive: [1] -0.231 | [3] 0.08 | [4] -0.032 | [5] 0.01 | [6] 0.043 | [7] -0.117 | [8] 0.255

Source: the supplement of paper PMC10849652
